According to paper doi:10.1101/575241:
No constants are given. Whether binding was seen depends on the method and setting. Binding can be weak; no strength is given.

Biological target: U. maydis Upa1 (aa 970-1287) (U. maydis)
Assay: two-hybrid

B1: Ubc13 (enzyme, UniProt P52490 1-153)
chain: MASLPKRIIKETEKLVSDPVPGITAEPHDDNLRYFQVTIEGPEQSPYEDGIFELELYLPDDYPMEAPKVRFLTKIYHPNIDRLGRICLDVLKTNWSPALQIRTVLLSIQALLASPNPNDPLANDVAEDWIKNEQGAKAKAREWTKLYAKKKPE
Q: B1 was tested. Which binding did it give?
A: binds

B2: Mms2 (protein, UniProt P53152 1-137)
chain: MSKVPRNFRLLEELEKGEKGFGPESCSYGLADSDDITMTKWNGTILGPPHSNHENRIYSLSIDCGPNYPDSPPKVTFISKINLPCVNPTTGEVQTDFHTLRDWKRAYTMETLLLDLRKEMATPANKKLRQPKEGETF
Q: B2 was tested. Which binding did it give?
A: binds weakly
